# Reference: the supplement of paper PMC3682954
# Values joined by “and” are separate entries in the source; they are usually repeats but may differ in a detail not shown here. Equal entries are not always repeated. Structures can show the parent of a compound that is named as a salt. ± gives the standard deviation of the averaged measurements. This is one part of the list. Repeats are few or missing, and single values can be far off.
# Test system: RAW 264.7
# Assay: HMGB1-induced TNF-alpha production relative to HMGB1-stimulated control; higher = more TNF-alpha secretion (less inhibition)
# Details: stimulus: HMGB1 5 ug/ml, 18 h
# [1] = compound concentration: 1 ug/ml
Compound,HMGB1-induced TNF-alpha production (compound concentration: 3 uM),HMGB1-induced TNF-alpha production [1] [%]
Cc1cc(NC2CCCCC2)nc(-n2nc(C)cc2C)n1,96.2%,
CC(C)CC(N)C(=O)O (racemic) [DL-Leucine],,65.2
NCCSSCCN [Cystamine dihydrochloride],80.4%,
Nc1nc2c(ncn2COCCO)c(=O)[nH]1 [Acyclovir],90.7 ± 2.1%,
Nc1nc2c(ncn2COCCO)c(=O)[nH]1 [Acycloguanosine],92.6%,
Nc1nc2c(ncn2COCCO)c(=O)[nH]1,91.49 ± 0.059%,
CCCCCN(CCCCC)C(=O)C(CCC(=O)O)NC(=O)c1ccc(Cl)c(Cl)c1 (stereo not drawn) [Lorglumide],104%,
CCCCCN(CCCCC)C(=O)C(CCC(=O)O)NC(=O)c1ccc(Cl)c(Cl)c1 (stereo not drawn),85.3%,
CCCCCN(CCCCC)C(=O)C(CCC(=O)O)NC(=O)c1ccc(Cl)c(Cl)c1 (stereo not drawn) [Lorglumide sodium],109%,
CCCCCN(CCCCC)C(=O)C(CCC(=O)O)NC(=O)c1ccc(Cl)c(Cl)c1 (stereo not drawn) [Lorglumide sodium salt],78.8%,
CC(C)NCC(O)c1ccc(O)c(O)c1 (stereo not drawn) [S(+)-Isoproterenol (+)-bitartrate],59%,
CC(C)NCC(O)c1ccc(O)c(O)c1 (stereo not drawn),66%,
COc1ccc2[nH]c([S@@+]([O-])Cc3ncc(C)c(OC)c3C)nc2c1 [Esomeprazole magnesium dihydrate],78.1%,
COc1ccc2[nH]c([S@@+]([O-])Cc3ncc(C)c(OC)c3C)nc2c1 [Esomeprazole],84.9%,
CC(C)(C)NC(=O)[C@@H]1C[C@@H]2CCCC[C@@H]2CN1C[C@@H](O)[C@H](Cc1ccccc1)NC(=O)[C@H](CC(N)=O)NC(=O)c1ccc2ccccc2n1 [Saquinavir mesylate],125%,
CC(C)(C)NC(=O)[C@@H]1C[C@@H]2CCCC[C@@H]2CN1C[C@@H](O)[C@H](Cc1ccccc1)NC(=O)[C@H](CC(N)=O)NC(=O)c1ccc2ccccc2n1,104%,
COC(=O)C1=C(C)NC(C)=C([N+](=O)[O-])C1c1ccccc1C(F)(F)F (racemic),77.5%,
CC[C@H]1OC(=O)C[C@@H](O)[C@H](C)[C@@H](O[C@@H]2O[C@H](C)[C@@H](O[C@H]3C[C@@](C)(O)[C@@H](O)[C@H](C)O3)[C@H](N(C)C)[C@H]2O)[C@@H](CC=O)C[C@@H](C)C(=O)/C=C/C(C)=C/[C@@H]1CO[C@@H]1O[C@H](C)[C@@H](O)[C@@H](OC)[C@H]1OC,98.7%,
CC[C@H]1OC(=O)C[C@@H](O)[C@H](C)[C@@H](O[C@@H]2O[C@H](C)[C@@H](O[C@H]3C[C@@](C)(O)[C@@H](O)[C@H](C)O3)[C@H](N(C)C)[C@H]2O)[C@@H](CC=O)C[C@@H](C)C(=O)/C=C/C(C)=C/[C@@H]1CO[C@@H]1O[C@H](C)[C@@H](O)[C@@H](OC)[C@H]1OC [Tylosin],91.3 ± 18%,
CC(C)ON([C@@H](C(=O)NO)C(C)C)S(=O)(=O)c1ccc(-c2ccccc2)cc1,97.1%,
O=C(CCCCCCC(=O)Nc1ccccc1)NO [Vorinostat],42.1%,
CCc1ccc2c(-c3cccc(Cl)c3)nc(=O)n(CC)c2n1,59.1%,
COC(=O)C1=C(C)NC(C)=C(C(=O)OC2CCCN(Cc3ccccc3)C2)C1c1cccc([N+](=O)[O-])c1 (stereo not drawn),99.1%,
C[C@]12C[C@H](O)[C@H]3[C@@H](CCC4=CC(=O)CC[C@@]43C)[C@@H]1CC[C@@H]2C(=O)CO,64.2%,
C[C@]12C[C@H](O)[C@H]3[C@@H](CCC4=CC(=O)CC[C@@]43C)[C@@H]1CC[C@@H]2C(=O)CO [Corticosterone],56.4 ± 5.4%,
CC1(C)O[C@@H]2C[C@H]3[C@@H]4CCC5=CC(=O)C=C[C@]5(C)[C@H]4[C@@H](O)C[C@]3(C)[C@]2(C(=O)CO)O1,43.9%,

# Not a retest: an excerpt of the list.
Compound,HMGB1-induced TNF-alpha production (compound concentration: 3 uM),HMGB1-induced TNF-alpha production [1] [%]
CCc1ccc2c(-c3cccc(Cl)c3)nc(=O)n(CC)c2n1,59.1%,
COC(=O)C1=C(C)NC(C)=C(C(=O)OC2CCCN(Cc3ccccc3)C2)C1c1cccc([N+](=O)[O-])c1 (stereo not drawn),99.1%,
C[C@]12C[C@H](O)[C@H]3[C@@H](CCC4=CC(=O)CC[C@@]43C)[C@@H]1CC[C@@H]2C(=O)CO,64.2%,
C[C@]12C[C@H](O)[C@H]3[C@@H](CCC4=CC(=O)CC[C@@]43C)[C@@H]1CC[C@@H]2C(=O)CO [Corticosterone],56.4 ± 5.4%,
CC1(C)O[C@@H]2C[C@H]3[C@@H]4CCC5=CC(=O)C=C[C@]5(C)[C@H]4[C@@H](O)C[C@]3(C)[C@]2(C(=O)CO)O1,43.9%,

# More entries follow.

Compound,HMGB1-induced TNF-alpha production (compound concentration: 3 uM),HMGB1-induced TNF-alpha production [1] [%]
COc1ccccc1N1CCN(CCN(C(=O)c2ccc(F)cc2)c2ccccn2)CC1 [p-MPPF dihydrochloride],117%,
"c1ccc(-c2ccccn2)nc1 [2,2'-Bipyridyl]",89.5%,
CCN(CC)CCOc1ccc2c(c1)C(=O)c1cc(OCCN(CC)CC)ccc1-2,78.6%,
Oc1ccc(Cn2cc[nH]c2=S)cc1 [1-(4-Hydroxybenzyl)imidazole-2-thiol],88.4%,
CCN(CC)C(=S)SSC(=S)N(CC)CC,70.1%,
CCN(CC)C(=S)SSC(=S)N(CC)CC [Disulfiram],70 ± 11%,
C=C[C@@]1(C)CC(=O)[C@]2(O)[C@@]3(C)[C@@H](O)CCC(C)(C)[C@@H]3[C@H](O)[C@H](OC(C)=O)[C@@]2(C)O1 [Forskolin],85.4%,
C=C[C@@]1(C)CC(=O)[C@]2(O)[C@@]3(C)[C@@H](O)CCC(C)(C)[C@@H]3[C@H](O)[C@H](OC(C)=O)[C@@]2(C)O1,99.5%,
CN(Cc1cnc2nc(N)nc(N)c2n1)c1ccc(C(=O)NC(CCC(=O)O)C(=O)O)cc1 (racemic),86.2 ± 5.4%,
C/C(=C(\CCOP(=O)(O)O)SC(=O)c1ccccc1)N(C=O)Cc1cnc(C)nc1N,81.9%,
C/C(=C(\CCOP(=O)(O)O)SC(=O)c1ccccc1)N(C=O)Cc1cnc(C)nc1N [Benfotiamine],107%,
Nc1ccc2cn[nH]c2c1,99%,
Nc1c2c(nc3ccccc13)CCCC2,89.1% and 108%,
Nc1c2c(nc3ccccc13)CCCC2 [Tacrine],93.2%,
"Nc1c2c(nc3ccccc13)CCCC2 [9-Amino-1,2,3,4-tetrahydroacridine hydrochloride]",81.6%,
NC[C@H]1CC[C@H](C(=O)Oc2ccc(CCC(=O)O)cc2)CC1,104%,
"Nc1ncnc2c1ncn2[C@@H]1O[C@H](COP(=O)(O)OP(=O)(O)O)[C@@H](O)[C@H]1O [Adenosine 5'-diphosphate, monosodium salt dihydrate]",,81.4
"Nc1ncnc2c1ncn2[C@@H]1O[C@H](COP(=O)(O)OP(=O)(O)O)[C@@H](O)[C@H]1O [Adenosine-5'-diphosphate, disodium salt hydrate]",,81.5
O=c1cc(-c2ccccc2)oc2cc(O)cc(O)c12 [Chrysin],,87.8
Cc1nc2sccn2c(=O)c1CCN1CCC(=C(c2ccccc2)c2ccc(F)cc2)CC1 [Diacylglycerol kinase inhibitor I],73.1%,
"CC(C)=CCC/C(C)=C/CC/C(C)=C/CO [Farnesol, mixture of isomers]",,79.7
COc1c(-c2ccccc2)oc2c(ccc3occc32)c1=O [Karanjin],,40.8
Cc1c(C(=O)O)c(O)cc2c1C(=O)c1c(O)c([C@@H]3O[C@H](CO)[C@@H](O)[C@H](O)[C@H]3O)c(O)c(O)c1C2=O [Carminic acid],,79.8
CC(C)(C)C(=O)C(Oc1ccc(Cl)cc1)n1ccnc1 (stereo not drawn) [Climbazole],101%,
Cc1ccccc1OCC(O)CO (stereo not drawn) [Mephenesin],89.2%,
Cc1ccccc1OCC(O)CO (stereo not drawn),83.1%,

Compound,HMGB1-induced TNF-alpha production (compound concentration: 3 uM),HMGB1-induced TNF-alpha production [1] [%]
S=c1ccss1,80.9%,
CC1=C(CC(=O)O)c2cc(F)ccc2/C1=C\c1ccc(S(C)(=O)=O)cc1 [Sulindac sulfone],96.2%,
"NC(N)=NC(=O)c1nc(Cl)c(N2CCCCCC2)nc1N [5-(N,N-hexamethylene)amiloride]",72.4%,
CS(=O)(=O)c1ccc(-c2cc(Br)sc2-c2ccc(F)cc2)cc1,92%,
O=C1CN(/N=C/c2ccc([N+](=O)[O-])o2)C(=O)N1,80.7%,
O=C1CN(/N=C/c2ccc([N+](=O)[O-])o2)C(=O)N1 [Nitrofurantoin],89.8%,
C[C@H](N)[C@H](O)c1cccc(O)c1,70.9%,
C[C@H](N)[C@H](O)c1cccc(O)c1 [Metaraminol bitartrate],83.4%,
COc1ccc(C(=O)/C(Br)=C\C(=O)O)cc1 [Bromebric acid],79.5%,
CCN(CC)CCOC(=O)C(Cc1cccc2ccccc12)CC1CCCO1 (stereo not drawn) [Nafronyl oxalate],73.1%,
CCN(CC)CCOC(=O)C(Cc1cccc2ccccc12)CC1CCCO1 (stereo not drawn),84.2%,
CC1(C)S[C@@H]2[C@H](NC(=O)C(C(=O)O)c3ccccc3)C(=O)N2[C@H]1C(=O)O (stereo partly drawn),101%,
O=C1CN(/N=C/c2ccc(-c3ccc([N+](=O)[O-])cc3)o2)C(=O)N1 [Dantrolene sodium salt],77.7%,
O=C1CN(/N=C/c2ccc(-c3ccc([N+](=O)[O-])cc3)o2)C(=O)N1 [Dantrolene sodium],92%,
O=C1CN(/N=C/c2ccc(-c3ccc([N+](=O)[O-])cc3)o2)C(=O)N1,92.1%,
COc1cc(O)c2c(c1)C(=O)c1cc(C)cc(O)c1C2=O,95.4%,
CC(C)[C@H]1c2ccc(F)cc2CC[C@@]1(CCN(C)CCCc1nc2ccccc2[nH]1)OC(=O)C1CC1,111%,
CCOC(=O)n1ccn(C)c1=S,76.5%,
CCOC(=O)n1ccn(C)c1=S [Carbimazole],70.4%,
NC(=O)NC(CC(=O)O)C(=O)O (racemic) [Ureidosuccinic acid; Carbamoyl-dl-aspartic acid],,89.1
CC1(C)S[C@@H]2[C@H](NC(=O)[C@H](C(=O)O)c3ccsc3)C(=O)N2[C@H]1C(=O)O,99.4%,
CC1(C)S[C@@H]2[C@H](NC(=O)[C@H](C(=O)O)c3ccsc3)C(=O)N2[C@H]1C(=O)O [Ticarcillin sodium],126%,
CN[C@@H]1[C@@H](O)[C@@H](O[C@@H]2[C@@H](O)[C@H](O[C@H]3OC(CN)=CC[C@H]3N)[C@@H](N)C[C@H]2N)OC[C@]1(C)O,84.7%,
CN[C@@H]1[C@@H](O)[C@@H](O[C@@H]2[C@@H](O)[C@H](O[C@H]3OC(CN)=CC[C@H]3N)[C@@H](N)C[C@H]2N)OC[C@]1(C)O [Sisomicin sulfate],58.5%,
Cc1cc(NS(=O)(=O)c2ccc(N)cc2)no1 [Sulfamethoxazole],87.5%,
Cc1cc(NS(=O)(=O)c2ccc(N)cc2)no1,88.4%,
